The text below walks through data of paper PMC10280842.

Amino acid sequences for entries named in this document (tags omitted).
UniProt P01106: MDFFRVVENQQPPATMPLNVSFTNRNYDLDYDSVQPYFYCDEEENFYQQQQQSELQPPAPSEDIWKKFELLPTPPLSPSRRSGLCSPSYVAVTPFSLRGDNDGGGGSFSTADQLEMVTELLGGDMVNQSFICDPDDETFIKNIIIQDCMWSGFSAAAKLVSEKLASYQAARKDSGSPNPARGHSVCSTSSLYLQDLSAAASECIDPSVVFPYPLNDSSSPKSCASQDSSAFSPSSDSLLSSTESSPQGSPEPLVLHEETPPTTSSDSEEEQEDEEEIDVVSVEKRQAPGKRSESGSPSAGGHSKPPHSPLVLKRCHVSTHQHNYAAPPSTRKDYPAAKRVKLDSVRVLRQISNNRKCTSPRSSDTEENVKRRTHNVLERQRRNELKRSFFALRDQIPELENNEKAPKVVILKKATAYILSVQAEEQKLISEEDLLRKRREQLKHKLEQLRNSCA
UniProt Q9UNS1: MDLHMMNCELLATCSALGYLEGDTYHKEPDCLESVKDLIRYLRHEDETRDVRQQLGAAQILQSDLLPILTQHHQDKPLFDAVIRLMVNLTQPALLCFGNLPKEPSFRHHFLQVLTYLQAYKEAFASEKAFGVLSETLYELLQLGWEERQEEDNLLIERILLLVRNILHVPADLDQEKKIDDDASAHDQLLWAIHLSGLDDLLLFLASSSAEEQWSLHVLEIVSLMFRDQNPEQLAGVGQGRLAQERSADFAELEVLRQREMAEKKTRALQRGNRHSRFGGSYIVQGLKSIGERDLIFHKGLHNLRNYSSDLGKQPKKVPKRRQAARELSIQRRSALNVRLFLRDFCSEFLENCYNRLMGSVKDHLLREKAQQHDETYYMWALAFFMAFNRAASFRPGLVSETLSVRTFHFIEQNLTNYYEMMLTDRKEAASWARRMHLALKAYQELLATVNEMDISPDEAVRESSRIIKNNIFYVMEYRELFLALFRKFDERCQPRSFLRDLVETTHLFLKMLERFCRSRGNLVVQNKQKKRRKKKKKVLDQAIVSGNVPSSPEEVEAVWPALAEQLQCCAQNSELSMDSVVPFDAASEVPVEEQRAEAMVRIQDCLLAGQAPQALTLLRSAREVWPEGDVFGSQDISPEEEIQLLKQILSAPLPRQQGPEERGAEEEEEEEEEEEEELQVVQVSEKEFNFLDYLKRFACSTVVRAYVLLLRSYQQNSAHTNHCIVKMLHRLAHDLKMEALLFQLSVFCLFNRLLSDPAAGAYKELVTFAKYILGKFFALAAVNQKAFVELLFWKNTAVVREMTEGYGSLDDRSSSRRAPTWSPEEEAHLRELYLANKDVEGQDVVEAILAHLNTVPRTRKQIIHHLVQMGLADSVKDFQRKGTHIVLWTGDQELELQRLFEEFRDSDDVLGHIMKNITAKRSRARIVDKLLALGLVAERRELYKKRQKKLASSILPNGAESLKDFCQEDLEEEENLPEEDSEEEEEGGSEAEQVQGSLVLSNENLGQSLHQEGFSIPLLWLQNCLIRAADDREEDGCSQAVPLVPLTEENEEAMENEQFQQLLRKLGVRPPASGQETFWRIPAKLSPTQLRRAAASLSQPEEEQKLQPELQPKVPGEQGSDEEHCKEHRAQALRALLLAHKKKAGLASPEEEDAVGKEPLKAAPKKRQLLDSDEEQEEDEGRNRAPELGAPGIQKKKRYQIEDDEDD

For this assay, the target named is c-Myc (human (endogenous in MCF-7 and BT-20)) (UniProt P01106). Kind of assay: co-IP; lysates of MCF-7 and BT-20 cells; antibody added to the lysate 1 h at room temperature, then protein A/G beads 1 h at room temperature (magnetic protein A/G IP/Co-IP kit); washed with lysis buffer; Western blot.

These are yes or no findings as the source states them, for the method shown. Binding seen in cells or lysates may run through a third protein. Some entries that bind do so weakly or less than the wild type.

In the case of TIMELESS (from UniProt Q9UNS1 1-1208), the binding entry is “binds”.
